PMC5371313
These are yes or no findings as the source states them, for the method shown. In cells and extracts the contact can be indirect. Some binding calls cover weakened binding; strength is not graded here.

Sequences of proteins named here, by UniProt entry; tags and fusion partners are left off.
UniProt P08670: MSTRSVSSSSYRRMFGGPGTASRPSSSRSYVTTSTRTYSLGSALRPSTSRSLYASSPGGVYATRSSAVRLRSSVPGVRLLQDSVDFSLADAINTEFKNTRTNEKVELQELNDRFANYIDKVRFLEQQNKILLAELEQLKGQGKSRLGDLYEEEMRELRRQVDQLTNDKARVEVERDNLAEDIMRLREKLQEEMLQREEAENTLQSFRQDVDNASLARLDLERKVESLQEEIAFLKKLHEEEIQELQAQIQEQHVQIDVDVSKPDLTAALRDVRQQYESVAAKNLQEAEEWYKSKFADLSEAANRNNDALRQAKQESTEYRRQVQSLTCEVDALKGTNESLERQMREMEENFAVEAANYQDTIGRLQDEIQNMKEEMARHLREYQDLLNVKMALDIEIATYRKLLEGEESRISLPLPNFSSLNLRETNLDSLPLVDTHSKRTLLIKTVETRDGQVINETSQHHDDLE

B1: S100A9 (protein, UniProt P06702 1-114)
chain: MTCKMSQLERNIETIINTFHQYSVKLGHPDTLNQGEFKELVRKDLQNFLKKENKNEKVIEHIMEDLDTNADKQLSFEEFIMLMARLTWASHEKMHEGDEGPGHHHKPGLGEGTP

Biological target: T1, Annexin A1 (human (endogenous in 6-10B)) (UniProt P04083)
T1 sequence: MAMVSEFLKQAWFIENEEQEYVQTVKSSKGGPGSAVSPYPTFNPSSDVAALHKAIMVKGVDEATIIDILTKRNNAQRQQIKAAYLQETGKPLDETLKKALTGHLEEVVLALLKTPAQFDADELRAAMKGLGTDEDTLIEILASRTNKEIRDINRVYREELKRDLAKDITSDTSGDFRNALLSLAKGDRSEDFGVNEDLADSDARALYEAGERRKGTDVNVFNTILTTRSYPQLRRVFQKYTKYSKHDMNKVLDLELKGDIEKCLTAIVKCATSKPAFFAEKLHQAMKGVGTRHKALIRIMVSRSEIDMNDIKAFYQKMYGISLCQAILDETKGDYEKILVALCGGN
Assay: co-IP; 6-10B NPC cell lysate precleared, immunoprecipitated with anti-Annexin A1 antibody, Protein G agarose at 4°C, washed three times with PBS; Western blot with anti-Vimentin, anti-S100A9, anti-Annexin A1; non-immune IgG as negative control

Molecule | binding
Vimentin (from UniProt P08670 1-466) | binds
B1 | binds
